# The list shows a part of the results. These are further read-outs of the screen, such as a control signal, another cell line or another target. No call is given for them. The list favours compounds with an active or inconclusive main result. Potencies come from curve fits of mixed quality, noted in brackets.
# Experiment: IkB Signaling
# Details: ABC-DLBCL IkBa-CBG/CBR dual luciferase ratio (green luciferase fused to IkBa over red control in OCI-Ly3 lymphoma cells), 4 h
# Source text: NIH Molecular Libraries Screening Centers Network [MLSCN]
# NIH Chemical Genomics Center [NCGC]
# Nuclear factor kappa-B (NF-kappa-B) plays an important role in normal B cell development and survival. Diffuse large B cell lymphoma (DLBCL) is the most commonly observed type of non-Hodgkin's lymphoma. Gene expression analysis has identified an activated B cell-like subtype of DLBCL (ABC-DLBCL) which expresses known NF-kappa-B target genes. […] However, targets upstream of IKK have been largely unexplored and so nodes upstream of IKK in the NF-kappa-B pathway remain untested due to the lack of chemical probes.
# A cell-sensor assay for I-kappa-B-alpha stabilization was developed with NIH investigator Dr. R. Eric Davis in Dr. Louis M. Staudt's laboratory. The assay uses green (CBG68) and red (CBR) emitting beetle luciferases [Chroma-Glo(TM) developed by Promega Corp.] where the green luciferase is fused to I-kappa-B-alpha and the red luciferase is present in its native state. Both luciferase genes are stably present in the OCI-Ly3 human ABC DLBCL cell line, but their expression is under the control of tetracycline-inducible promoters. Following the addition of doxycycline to induce expression of the luciferases, the green luminescence in control cultures rises only slowly because the CBG fusion partner I-kappa-B-alpha is targeted by IKK activity for rapid degradation. In contrast, green luminescence rises rapidly in the presence of proteasome inhibitors or IKK inhibitors. The rise in red luminescence of CBR is not affected by proteasome or IKK inhibitors, and serves as normalization for cell number and nonspecific effects. Compounds were screened as a concentration-titration series that ranged from 57 uM to 0.7 nM.
# NCGC Assay Protocol Summary:
# Cells were seeded in 1536-well plates at 5000 cells/3ul in IMDM medium containing 0.5% FBS, w/o phenol red, L-glutamine, 25 mM HEPES, 3 mg/ml sodium bicarbonate. After centrifugation for 1 min. at 1000 rpm, 23 nl of compounds or DMSO were delivered to each well using a pin tool. Then 1ul 80ng/ml doxycycline was dispensed into white solid 1536-well plates and the plates were incubated at 37C/5% C02 in a cell incubator for 4 hrs. Then 4 ul Chroma-Glo luminescent substrate mix (Promega) was added to each well. The plate was incubated at R.T. for 10-15 min. The plates were measured on a ViewLux plate reader for green luminescence (540/20 nm filter) and red luminescence (618/8 nm filter). The green and red luminescent signals were corrected for red and green luminescence filter overlap using previously determined filter calibration constants (determined using the procedure outlined in the Promega Technical Manual). The %Activity was determined from the ratio of corrected green/red luminescent values. Green luminescent and ratio %Activity was determined by normalizing to the difference in signal between basal cells (0% Activity) and cells incubated with 10 uM of the proteasome inhibitor MG-132 (100% Activity). Red luminescent %Activity was normalized to the difference between red luminesence in basal cells (0%Activity) and zero luminescence (-100% Activity).
# Concentration-response curves were fitted to the signals arising from the green luminescence (I-kappa-B-alpha-luciferase fusion; IkB-luc) and the red luminescence (unfused luciferase; luc) as well as the calculated ratio. The concentration-effect curves were then classified based on curve quality (r2), response magnitude and degree of measured activity. Compounds were then categorized based on their concentration-response curves for all three datasets (Ikb-luc, luc and ratio).
# Keywords: IKK, I-kappa-B, IkB, IkBa, cytotoxicity, luminescence, MLSMR, MLSCN, NIH Roadmap, qHTS, NCGC
# [1] = measured here: control luc red channel unless noted
compound,measurement,setting,value
CCCCNC(=O)c1ccc2c(c1)NC(=O)C(CS(=O)(=O)Cc1cccc(C)c1)N2 (stereo not given),AC50,[1],"0.00794 µM [rising, full curve, poor fit]"
CCOC(=O)Cn1c(=O)oc2cc(S(=O)(=O)NC3CCCc4ccccc43)ccc21 (stereo not given),AC50,measured here: IkB-luc green channel,"39.8 µM [falling, single point]"
same,AC50,measured here: control luc red channel,"15.8 µM [falling, partial curve]"
Cc1ccc(S(=O)(=O)N2CCN(Cc3noc(CCC(=O)N4CCCCC4)n3)CC2)c(C)c1,AC50,[1],"25.1 µM [falling, single point]"
O=C(c1ccc2c(=O)n(-c3ccccc3)c(=O)[nH]c2c1)N1CCCCC1,AC50,[1],"12.6 µM [falling, partial curve]"
CC(C)Cn1c(=O)c2sccc2n2c(CCCC(=O)NCCc3ccccc3)nnc12,AC50,[1],"25.1 µM [falling, single point]"
Cc1ccc(S(=O)(=O)c2cn(CC(=O)Nc3ccc4c(c3)OCO4)c3ccccc3c2=O)cc1,AC50,[1],"39.8 µM [falling, single point]"
Cc1cccc(N2CCN(C(=O)Cc3c(C(=O)O)[nH]c4ccc(Cl)cc34)CC2)c1C,AC50,[1],"15.8 µM [falling, partial curve]"
Cc1ccc(Nc2nc3c(S(=O)(=O)c4ccccc4)nnn3c3ccsc23)c(C)c1,AC50,[1],"5.01 µM [rising, full curve, poor fit]"
COc1cccc(NC(=O)CSc2nc(=O)n(Cc3ccco3)c3c2CCC3)c1,AC50,[1],"10 µM [falling, partial curve]"
CCN(CC)CCCNC(=O)CSc1c2c(nc3cc(Cl)ccc13)CCCC2,AC50,[1],"25.1 µM [falling, single point]"
C=CCC(CC=C)(CNC(=O)C(=O)Nc1cc(C)ccc1OC)c1ccc(OC)c(OC)c1,AC50,[1],"10 µM [falling, partial curve]"
O=C(Cn1cc(S(=O)(=O)N2CCCC2)c(S(=O)(=O)N2CCCC2)c1)Nc1cccc(F)c1,AC50,[1],"0.0398 µM [falling, full curve, poor fit]"
COc1ccccc1CNC(=O)CN1C(=O)COc2ccc(S(=O)(=O)N3CCC(C)CC3)cc21,AC50,[1],"31.6 µM [falling, single point]"
COc1ccc(NC(=O)/C(C#N)=C/c2cc(C)n(-c3ccc(F)cc3)c2C)cc1,AC50,[1],"3.16 µM [rising, full curve, poor fit]"
CCOC(=O)c1cccc(NC(=O)C2CCCN(S(=O)(=O)c3ccc4c(c3)oc(=O)n4C)C2)c1 (stereo not given),AC50,[1],"15.8 µM [falling, partial curve]"
CCc1ccc(NC(=O)C(C)n2nnc3sc(-c4ccccc4)cc3c2=O)cc1 (stereo not given),AC50,[1],"7.94 µM [falling, partial curve]"
CC(C)C(=O)N(Cc1ccccc1)S(=O)(=O)c1ccc2c(c1)oc(=O)n2C,AC50,[1],"12.6 µM [falling, partial curve]"
Cc1nc2nncn2c(NCc2ccc(Cl)cc2)c1C,AC50,[1],"15.8 µM [falling, partial curve]"
Cc1ccc(-c2cn3nc(C)c(C)nc3n2)cc1,AC50,[1],"3.98 µM [falling, full curve, poor fit]"
Cc1ccc(-n2c(=O)c3c4c(sc3n(Cc3cccc(Cl)c3)c2=O)CCC4)cc1C,AC50,[1],"10 µM [falling, partial curve]"
COC(=O)c1c(NC(=O)CN2CCN(Cc3ccc4c(c3)OCO4)CC2)sc(C)c1C,AC50,[1],"7.94 µM [falling, partial curve]"
Cc1ccc2nc(N3CCN(Cc4ccc(F)cc4)C3=O)c(C)cc2c1,AC50,[1],"31.6 µM [falling, single point]"
Cc1nc2nc(SCC(=O)O)nn2c(C)c1Cc1c(F)cccc1Cl,AC50,[1],"3.98 µM [falling, partial curve]"
Cc1ccc(CN(C(=O)COc2ccc(Cl)c(C)c2)C2CCS(=O)(=O)C2)o1 (stereo not given),AC50,[1],"12.6 µM [falling, partial curve]"
COc1ccc(-c2noc(CCC(=O)Nc3ccc4c(c3)OCCO4)n2)cc1,AC50,[1],"5.01 µM [falling, full curve, poor fit]"
Cc1nc(Nc2ccc(Cl)cc2)cc(-c2ccccc2)n1,AC50,[1],"7.94 µM [falling, single point]"
O=c1c2cn[nH]c2nc(SCc2cccc(Br)c2)n1-c1ccc(Cl)cc1,AC50,[1],"39.8 µM [falling, single point]"
COc1ccccc1CNC(=O)NCc1noc2ccc(C)cc12,AC50,[1],"15.8 µM [falling, single point]"
COc1ccc(CNC(=O)c2nc(SC(C)C)ncc2Cl)cc1,AC50,[1],"10 µM [falling, single point]"
COCCCNC(=O)c1sc2nc3n(c(=O)c2c1C)CCC3,AC50,[1],"0.01 µM [falling, full curve, poor fit]"
O=C(Nc1ccc(F)cc1)N1CCC(c2nc3c(nnn3Cc3cccc(Cl)c3)c(=O)[nH]2)CC1,AC50,[1],"31.6 µM [falling, single point]"
CCC(=O)Nc1ccc2nc(SCCOc3ccccc3)sc2c1,AC50,[1],"0.00631 µM [rising, full curve]"
CC(=O)Nc1nonc1-c1nnc(SCC(=O)Nc2ccccc2)n1-c1ccccc1,AC50,[1],"15.8 µM [falling, partial curve, poor fit]"
COC(=O)CSc1nnc2n(C3CCCCC3)c(=O)c3c4c(sc3n12)CCCC4,AC50,[1],"31.6 µM [falling, single point]"
CCCCOc1ccc(CNC(=O)c2ccc(NC(=O)N3CCCCc4ccccc43)cc2)cc1,AC50,[1],"2 µM [falling, full curve, poor fit]"
CCOC(=O)Cn1c(=O)n(CC2CCCO2)c2nc(-c3cccc(C)c3)nc(C(N)=O)c21 (stereo not given),AC50,[1],"10 µM [falling, partial curve, poor fit]"
CC1(C)CC(=O)C2=C(C1)OC(N)=C(C#N)C2C#Cc1ccccc1 (stereo not given),AC50,[1],"25.1 µM [rising, partial curve] [measured here: IkB-luc green channel]"
COC(=O)c1ccc(-n2c(CCC(=O)O)ccc2-c2ccc(C)cc2)cc1,AC50,[1],"12.6 µM [falling, partial curve]"
Cc1ccc(C)c(N2CCN(Cc3nnc(-c4ccc5c(c4)OCO5)o3)CC2)c1,AC50,[1],"31.6 µM [falling, partial curve]"

# Part of the list above, with tabs:
compound	measurement	setting	value
Cc1ccc(-n2c(=O)c3c4c(sc3n(Cc3cccc(Cl)c3)c2=O)CCC4)cc1C	AC50	[1]	10 µM [falling, partial curve]
COC(=O)c1c(NC(=O)CN2CCN(Cc3ccc4c(c3)OCO4)CC2)sc(C)c1C	AC50	[1]	7.94 µM [falling, partial curve]
